In the supplement of paper PMC5407854, “Inhibitor of ppGalNAc-T3-mediated O-glycosylation blocks cancer cell invasiveness and lowers FGF23 levels” (eLife, 2017):
The list shows a part of the results. Most entries show no effect beyond the scatter of the controls.

How the values were obtained:
ppGalNAc-T3 sensor = assay: T3 sensor activation Q score (MG/GFP ratio z-score vs DMSO controls) (SD units); higher = more sensor activation (inhibition of ppGalNAc-T3 glycosylation); conditions: HEK293 sensor cells; 10 µM; 6 h
Method: (§1)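 Cells were treated with compound at 10 uM for 6 h, then MG/GFP ratio was read by flow cytometry (10,000 cells per well, duplicate wells). Q = (R - R_neg)/SD_neg relative to DMSO vehicle controls; the signal rises when the glycosyltransferase is inhibited.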

ppGalNAc-T2 sensor = assay: T2 sensor activation Q score (MG/GFP ratio z-score vs DMSO controls) (SD units); higher = more sensor activation (inhibition of ppGalNAc-T2 glycosylation); conditions: HEK293 sensor cells; 10 µM; 6 h
Method: as §1

Compound	T3 sensor activation Q score (ppGalNAc-T3 sensor)	T2 sensor activation Q score (ppGalNAc-T2 sensor)
COc1ccc(CC(=O)N2CCCC2)cc1	0.255	0.295
CC(C)(C)c1ccc(C(=O)Nc2ccc(F)cc2)cc1	0.545	-0.44
O=C(Nc1nn[nH]n1)C1c2ccccc2Oc2ccccc21	-0.18	1.14
O=S(=O)(Nc1cccc(Cl)c1Cl)c1ccc(F)cc1	-0.24	-0.335
CCN(CC)c1ccc(Nc2nc(-c3ccncc3)cs2)cc1	-0.42	-0.645
COc1cc2c(cc1OC)CN(Cc1c(F)cccc1Cl)CC2	0.5	-0.24
CCOc1ccc(NC(=O)Nc2cccc(Cl)c2)cc1	-0.2	0.84
Fc1ccc(CN2CCc3ccccc3C2)cc1Br	-0.155	-0.435
COc1ccc(NC(=O)C2CCCCC2C(=O)O)cc1 (stereo unspecified)	0.27	-0.125
O=C(O)CCCCc1cc2c(s1)CCCC(=O)N2	0.03	0.985
COc1ccc(NC(=O)N2CCCc3ccccc32)cc1	-0.375	-0.835
CC(C)c1ccc(C(=O)c2ccccc2C(=O)O)cc1	1.27	-0.065
CN1CCCN(Cc2cccc(Br)c2)CC1	-0.135	-0.4
CCN(CC)CCN(C)Cc1cccc(C)c1	0.765	-0.54
COc1cc(C)c(CN2CCCCC2)cc1C	0.345	0.875
Cc1ccc(OCCCCN2CCCCC2)cc1	0.34	-0.625
CC(=O)c1ccc(NC2=C(N3CCCCC3)C(=O)c3ccccc3C2=O)cc1	-0.87	-1.7
Cc1cccc(OCCCN2CCCCC2)c1C	0.16	-1.35
CCN1CCN(C/C=C/c2ccccc2[N+](=O)[O-])CC1	0.265	0.225
CC1(c2ccccc2)CC(C)(C)N2C(=O)Cc3cccc1c32 (stereo unspecified)	-0.365	0.015
COc1ccc(CN2CCCN(C)CC2)c(OC)c1C	-0.12	0.325
Cc1cccc(N(CC(=O)O)CC(=O)O)c1	1.18	0.775
CCCN(CCO)Cc1ccc(F)cc1F	0.665	0.45
COC(=O)NC(c1ccc(Br)cc1)C(Cl)(Cl)Cl (stereo unspecified)	-1.04	-0.545
CN1CCN(C2CC(=O)N(c3cc(Cl)cc(Cl)c3)C2=O)CC1 (stereo unspecified)	0.355	-0.895
O=C1C(Nc2ccc(F)c(F)c2)=C(N2CCOCC2)C(=O)c2ccccc21	-0.63	-0.675
Cc1cccc(C)c1NC(=O)CN1CCCCC1	0.75	0.375

Single records (already shown). Order of values: T3 sensor activation Q score (ppGalNAc-T3 sensor)	T2 sensor activation Q score (ppGalNAc-T2 sensor)
`CC1(c2ccccc2)CC(C)(C)N2C(=O)Cc3cccc1c32` (stereo unspecified) reads -0.365	0.015
`Cc1cccc(N(CC(=O)O)CC(=O)O)c1` reads 1.18	0.775
`COc1cc(C)c(CN2CCCCC2)cc1C` reads 0.345	0.875

The listing continues:

Compound	T3 sensor activation Q score (ppGalNAc-T3 sensor)	T2 sensor activation Q score (ppGalNAc-T2 sensor)
Nc1nnc(Cc2ccccc2)s1	1.17	-0.075
O=C(Nc1ccccc1F)c1ccco1	-0.08	-0.83
CN1CCN(C/C=C/c2ccc(N(C)C)cc2)CC1	0	0.72
Cc1ccccc1N1CCN(Cc2ccc(Br)s2)CC1	0.02	0.335
O=C(O)c1ccc(Cl)c(S(=O)(=O)N2CCOCC2)c1	-0.055	0.395
COc1cc(C)c(CN(C)C2CCN(C)CC2)cc1C	0.39	0.39
O=c1cc(O)n(-c2ccccc2)[nH]1	-0.735	-0.165
C(=C\c1ccccc1)/CN1CCN(C2C3CC4CC(C3)CC2C4)CC1 (stereo unspecified)	0.38	-0.1
Cc1ccc(NC2=C([N+](=O)[O-])CS(=O)(=O)C2)cc1	-0.01	0.88
O=S(=O)(NCCc1ccccc1)c1ccc(Cl)cc1	0.555	-0.88
CN(C)c1ccc(-c2nc3ccccc3o2)cc1	-0.535	-0.85
Cc1cccc(-c2nnc(-c3cccc(C)c3)o2)c1	-0.89	-0.965
COCc1nc2c(c(=O)[nH]1)C1(CCCCC1)Cc1ccccc1-2	0.58	0.105
Cc1cccc(CN2CCC(O)CC2)c1	0.2	0.25
O=C(O)/C=C1\NC(=O)c2ccccc21	2.35	-0.48
O=C(O)C1CCC(c2ccccc2)CC1 (stereo unspecified)	-0.185	0.76
Cc1ccsc1CN1CCN(c2cccc(C)c2C)CC1	-0.6	-0.37
O=C(NCC(O)c1ccccc1)c1cccc(Cl)c1 (stereo unspecified)	-0.13	-0.085
Nc1nnc(-c2ccc(Br)cc2)s1	0.18	-0.105
CC(=O)Nc1ccc(NC(=O)CCN2C(=O)c3ccccc3C2=O)cc1	0.065	-0.425
CCN1CCN(Cc2ccc(-c3ccccc3)cc2)CC1	0.89	0.68
Nc1cc(S(=O)(=O)c2ccc(Cl)cc2)ccc1Cl	1.2	-0.37
CCCC1CCC(c2ccc(C(=O)NN)cc2)CC1 (stereo unspecified)	0.295	0.27
O=C1NC(=O)c2cc(-c3ccccc3)ccc21	2.8	-0.705
O=[N+]([O-])c1ccc(CN2CCN(c3ncccn3)CC2)cc1	0.53	1.12
CC=CC=CC(=O)Nc1c[nH]c(=O)[nH]c1=O	0.11	0.34
